The subject of this experiment is HEK293A TEAD-LUC reporter. Put plainly: TEAD-luciferase reporter activity (YAP activation), robust Z score vs plate; higher = stronger YAP/TEAD activation. To be noted: 24 h. (A reporter such as luciferase makes a cellular process visible.)

Molecules are shown by their SMILES. Some of the results follow. This data set is noisy: repeats of one test often differ as much as different tests do.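 Human kidney-derived cells stably carry a construct in which eight TEAD-binding elements drive luciferase, measured by luminescence in a drug-repurposing library screen. A hit is any compound whose signal exceeds the plate mean by more than five robust Z scores.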

On to `NCCCCCCN` [Hexamethylenediamine], for which the TEAD-luciferase reporter activity by setting is: (compound concentration: 200 nM) inactive: -0.607; (compound concentration: 10 uM) inactive: -0.383.
Regarding `CCC(=O)NC[C@H]1CN(c2ccc([C@H]3CC[S@+]([O-])CC3)c(F)c2)C(=O)O1`, the TEAD-luciferase reporter activity reads like this: (compound concentration: 200 nM) inactive: -0.6; (compound concentration: 2 uM) inactive: 0.0802; (compound concentration: 10 uM) inactive: -0.978.
Regarding `COc1cc([C@@H]2c3cc4c(cc3[C@@H](O[C@@H]3O[C@@H]5CO[C@@H](C)O[C@H]5[C@H](O)[C@H]3O)[C@H]3COC(=O)[C@H]23)OCO4)cc(OC)c1OP(=O)(O)O` [Etoposide phosphate], the TEAD-luciferase reporter activity reads like this: (compound concentration: 200 nM) inactive: -0.71; (compound concentration: 2 uM) inactive: 2.86; (compound concentration: 10 uM) inactive: -1.1.
`CC(C)(C)c1ccc(O)c(/C(=N/O)c2ccccc2)c1`: the TEAD-luciferase reporter activity was inactive: 0.688 (compound concentration: 200 nM), inactive: 1.38 (compound concentration: 2 uM) and inactive: -0.341 (compound concentration: 10 uM).
In the same order, the values of `CCCCCCCCCC(=O)OC1(c2ccc(Cl)cc2)CCN(CCCC(=O)c2ccc(F)cc2)CC1` [Haloperidol decanoate] are inactive: -1.74, inactive: -0.793 and inactive: 1.59.
In the same order, the values of `C[C@@H]1CN(Cc2ncccn2)C[C@H]1c1nc2c(cnn2C2CCOCC2)c(=O)[nH]1` are inactive: 0.015, inactive: -1.3 and inactive: -1.18.
For `O=C1NNc2nc(CN3Cc4ccccc4C3)nc3cccc1c23`, in that order: inactive: -1.69, inactive: -2.19 and inactive: -0.941.
On to `CN1C=CCC(C(=O)O[C@@H]2CC[C@H]3[C@@H]4CCc5cc(O)ccc5[C@H]4CC[C@@]23C)=C1`, for which the TEAD-luciferase reporter activity was inactive: -0.879 (compound concentration: 200 nM), inactive: 1.66 (compound concentration: 2 uM) and inactive: 3.04 (compound concentration: 10 uM).
In the same order, the values of `O[C@@H]1[C@@H](O)[C@@H](O)O[C@@H]2COC(c3ccccc3)O[C@H]12` (stereo not given in full) are inactive: 0.743, inactive: 3.39 and inactive: 1.61.
For `O=C(c1ccc(F)cc1)C1CCN(CCCn2c(=O)[nH]c3cc(Cl)ccc32)CC1` [Milenperone], in that order: inactive: 0.595, inactive: -1.32 and inactive: -1.23.
With `COC(=O)c1cccnc1` [Methyl nicotinate], the TEAD-luciferase reporter activity (compound concentration: 200 nM) was inactive: 0.814, the TEAD-luciferase reporter activity (compound concentration: 2 uM) was inactive: -1.16 and the TEAD-luciferase reporter activity (compound concentration: 10 uM) is inactive: 0.734.
In the same order, the values of `C=C(C)[C@@H]1CC[C@]2(C(=O)OCC(N)(CO)CO)CC[C@]3(C)[C@H](CC[C@@H]4[C@@]5(C)CC[C@H](OC(C)=O)C(C)(C)[C@@H]5CC[C@]43C)[C@@H]12` are inactive: -2.41, inactive: 1.27 and inactive: 0.0998.
For `CC1(C)CCC[C@](C)([C@H]2CC[C@]3(C)[C@@H]2[C@H](O)C[C@@H]2[C@@]4(C)CC[C@H](O)C(C)(C)[C@@H]4[C@H](O)C[C@]23C)O1`, the TEAD-luciferase reporter activity is inactive: -1.14 (compound concentration: 200 nM), inactive: 0.402 (compound concentration: 2 uM) and inactive: -2.76 (compound concentration: 10 uM).
For `C[C@H](CCC(=O)O)[C@H]1CC[C@H]2[C@@H]3[C@@H](OS(=O)(=O)O)C[C@@H]4C[C@H](OS(=O)(=O)O)CC[C@]4(C)[C@H]3CC[C@]12C` [Ursulcholic acid], in that order: inactive: 0.191, inactive: 1.42 and inactive: -0.675.
On to `COc1cc(Nc2c(C#N)cnc3cc(OCCCN4CCN(C)CC4)c(OC)cc23)c(Cl)cc1Cl` [Bosutinib], for which the TEAD-luciferase reporter activity is, setting by setting: (compound concentration: 200 nM) inactive: -3.27; (compound concentration: 2 uM) inactive: -2.64; (compound concentration: 10 uM) inactive: -3.22.
Turning to `N#Cc1ccc(N(Cc2ccc(Br)cc2)n2cnnc2)cc1`, the TEAD-luciferase reporter activity was active: 10.9 (compound concentration: 200 nM), inactive: -1.2 (compound concentration: 2 uM) and inactive: -0.921 (compound concentration: 10 uM).
For `CN(C)CCOC(=O)NCCCCNC(=O)OCCN(C)C`, in that order: inactive: -1.39, inactive: -0.173 and inactive: 2.4.
Regarding `O=C1CCC(N2C(=O)c3cccc(CNC(=O)C4CC4)c3C2=O)C(=O)N1` (stereo not given), the TEAD-luciferase reporter activity is, setting by setting: (compound concentration: 200 nM) inactive: -0.984; (compound concentration: 2 uM) inactive: 0.0354; (compound concentration: 10 uM) inactive: -0.95.
For `COc1cc(C2Oc3cc(C4Oc5cc(OC(C)=O)cc(OC(C)=O)c5C(=O)C4OC(C)=O)ccc3OC2COC(C)=O)ccc1OC(C)=O` (stereo not given), in that order: inactive: -0.255, inactive: -1.02 and inactive: 4.04.
Regarding `CC(S)C(=O)NCC(=O)O` (stereo not given) [tiopronin], the TEAD-luciferase reporter activity was inactive: -1.05 (compound concentration: 200 nM), inactive: -0.71 (compound concentration: 2 uM) and active: 6.16 (compound concentration: 10 uM).
For `O=C(CCCN1CCN(c2cc3ccccc3cn2)CC1)c1ccc(F)cc1` [cinuperone], in that order: inactive: 3.05, inactive: -0.627 and inactive: 2.66.
On to `O=C(O)CC[C@H](NC(=O)[C@@H]1CC[C@@H](Oc2ccc(C(=O)c3ccccc3)c(Cl)c2Cl)C1)C(=O)O`, for which the TEAD-luciferase reporter activity was inactive: -1.89 (compound concentration: 200 nM) and inactive: -0.904 (compound concentration: 10 uM).
For `Cn1nc(CO)nc1NCCCOc1cccc(CN2CCCCC2)c1`, the TEAD-luciferase reporter activity is inactive: -0.759 (compound concentration: 200 nM), inactive: -1.25 (compound concentration: 2 uM) and inactive: -0.497 (compound concentration: 10 uM).
Turning to `COCC1=C(C(=O)OC(C)OC(=O)C(C)(C)C)N2C(=O)[C@@H](NC(=O)/C(=N\O)c3csc(N)n3)[C@H]2SC1` (stereo not given in full) [cefdaloxime pentexil], the TEAD-luciferase reporter activity reads like this: (compound concentration: 200 nM) inactive: 2.66; (compound concentration: 2 uM) inactive: -0.849; (compound concentration: 10 uM) inactive: 0.828.

(Values after the supplement of paper PMC10735217.)
